Data taken from ChEMBL document CHEMBL3988442, “University of Dundee, Small-Polar-MMV Screening Library” (2021).

Mtb growth Cornell: 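Whole-cell assay for inhibitors of Mycobacterium tuberculosis growth, labelled Cornell in the record; the read-out is not stated. The concentration is filed as 10 mM, unlikely as a test dose, so the dose is not known. Higher means stronger inhibition (inferred from two other growth screens of the library). Size under these conditions: about 53,000 compounds, about 900 of them at 50% or above in at least one test.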
Mtb heat-shock: 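Assay on Mycobacterium tuberculosis, filed only as a heat shock assay from Cornell; the read-out is not stated. The concentration is filed as 10 mM, unlikely as a test dose, so the dose is not known. Higher reads as stronger inhibition (inferred: compounds with an IC50 in retests scored well above the rest). Size under these conditions: about 69,000 compounds, about 930 of them at 50% or above in at least one test.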

Results are given as percent effect.
How 0% and 100% were set is not recorded. Most values in the screen are low, and negative values occur.
This is an unselected part of the compounds tested.
A dash means the value is not listed here; it may have been measured.

SMILES	Mtb growth Cornell	Mtb heat-shock
[H][C@@]12CCN(C[C@@H]1c1cc(-c3cccs3)nn1C)[C@@H](CN)C2	-13.35	-33.29
O=C(O)C(F)(F)F.O=C(O)C(F)(F)F.O=C(O)C(F)(F)F.c1cncc(CN2CCCn3nnc(CN4CCCC4)c3C2)c1	10.47	-36.4
CCCS(=O)(=O)N(C)C(=O)CCc1ccsc1	-8.501	-28.37
CNC(=O)Cn1nnc(-c2cc3ccccc3o2)n1	-6.51	-16.1
[H][C@@]12CCN(Cc3c(C)noc3C)C[C@@]1([H])[C@H](C(=O)N1CCCO1)CCO2	28.25	-4.942
O=S(=O)(Cc1ccc(F)c(Cl)c1)NCCOc1cccnc1	27.69	8.775
CN(C)CCNC(=O)c1cc(-c2cnc(N3CCCC3)nc2)cn1C.O=C(O)C(F)(F)F	-	-14.58
O=C(O)C(F)(F)F.O=C(O)C(F)(F)F.[H][C@@]12CN(CCOC)C[C@]1([H])[C@@H](OC)CCN2Cc1cccs1	5.528	-45.94
CN(C)C(=O)CN1CCCN(CC2CCOc3ccccc3C2)CC1 (stereo not drawn)	-32.31	-24.63
O=C1c2cnc(N3CCCCC3)nc2CN1c1ccc2c(c1)OCO2	-36.27	-6.567
O=C(O)C(F)(F)F.O=C(O)C(F)(F)F.[H][C@@]12CCN(Cc3ccccc3)C[C@]1([H])[C@@H](CNc1ncccn1)OC2	46.51	-23.72
CN(CCc1ccccn1)C(=O)CCC1CCCN(c2ccncc2)C1 (stereo not drawn)	-	-12.63
O=C(CN1CC(n2cccn2)C1)NCCc1ccc(F)cc1	33.05	-1.931
CN1CCC(N2CCC[C@H]2c2nc(-c3cncnc3N)no2)CC1	-23.53	-32.46
Cc1cccc(N2CCOCC3(C2)CN(c2cncnc2)C(=O)CO3)n1 (stereo not drawn)	11.61	4.792
COCCOc1cccc(C(=O)N2CCCCC2c2nccs2)c1 (stereo not drawn)	-	-5.857
CN1CCN(S(C)(=O)=O)c2cc(F)ccc21	-	-19.67
Cc1ccc(C(=O)N2CCC3(CCC(=O)N(CCCO)C3)CC2)c(O)c1	-58.75	-7.754
CN(CC(C)(C)C)c1ccc(C(=O)NCCCc2ccccn2)cn1	38.58	-4.806
CCC1c2ccccc2CCN1C(=O)c1ccc(OC)nn1 (stereo not drawn)	11.05	7.727
CNC(=O)C1(C)CN(c2nnc(C)c3ccccc23)CCO1 (stereo not drawn)	14	6.159
Cn1c(Cn2ccnc2)nnc1C1CCN(C(=O)c2ccoc2)CC1	7.298	-22.83
Cc1noc(C)c1CN(C)C(=O)CCOc1ccc(Cl)cc1	23.94	20.46
O=C(O)C(F)(F)F.O=C(O)C(F)(F)F.c1cnc(N2CCC3(COCCN(CC4CC4)C3)C2)nc1 (stereo not drawn)	5.674	4.3
Cn1nnc2c1C(COCC1CC1)CN(C(=O)C1=CCCC1)C2 (stereo not drawn)	5.085	7.821
Cc1oc2nc[nH]c(=O)c2c1C(=O)N1CCCC(n2cccn2)C1 (stereo not drawn)	11.65	20.75
Cn1cc(C(=O)NCCc2ccc(OC3CCCC3)cc2)ccc1=O	4.726	13.79
Cc1nn(C)c(C)c1CC(=O)N1CCCC1Cn1cccn1 (stereo not drawn)	-10.55	1.916
Cn1cnc(S(=O)(=O)N2CCSC3(CCCCC3)C2)c1	-8.449	-12.62
O=C(O)C(F)(F)F.O=C(O)C(F)(F)F.[H][C@]12CO[C@H](CN(C)Cc3ccco3)[C@@]1([H])CCN(c1ncc(F)cn1)C2	5.913	16.78
COCC(Nc1ncnc2c1CCNCC2)c1ccccn1 (stereo not drawn)	21.18	-40.21
Cc1nc(N(C)C)ncc1C(=O)NCCCn1nccc1C1CC1	-29.03	-21.16
Cc1cccc(C(C)(C)NC(=O)CS(=O)(=O)CC(C)C)c1	28.02	-21.83
COCc1nc(C(=O)N2CCCCC2Cn2cc(C)cn2)cs1 (stereo not drawn)	-	-10.96
COC1COC2(CCN(C(=O)c3cscn3)CC2)C1 (stereo not drawn)	-7.366	-6.884
O=C(NCC1(O)COCCN(Cc2cccc(O)c2)C1)c1cnccn1 (stereo not drawn)	-7.469	24.44
Cc1cc(C)c(CN2CCCC23Cc2ccccc2CNC3=O)c(C)c1 (stereo not drawn)	-	2.754
CC(NCc1ccco1)c1nnc2n1CCCC2 (stereo not drawn)	-	-19.76
COc1cc(F)cc2sc(NC(=O)COCC3CCCO3)nc12 (stereo not drawn)	-16.73	-23.52
Cc1nc(N)cc(C2CCN2CCOc2ccccc2)n1 (stereo not drawn)	13.38	-8.775
CSCC(=O)N(C)Cc1ccccc1	-	-23.63
[H][C@@]12CCN(C[C@@H]1CN1CCN(C)CC1)[C@@H](CNC(=O)c1ccco1)C2	9.681	-44.77
COCCN(CCC#N)S(=O)(=O)c1ccc(F)cc1F	-	5.744
CCCOc1cccc(CNC(=O)CN2CCN(C)CC2C)c1 (stereo not drawn)	22.24	-1.738
CC(Nc1cccc(F)c1C#N)c1cccc(S(N)(=O)=O)c1 (stereo not drawn)	9.436	17.84
CCc1noc(CN2CCN(C(=O)COC)CC2)n1	-	-16.37
O=C(CCCNc1ncccn1)Nc1ccc(Cn2cncn2)cc1	25.77	7.206
Cc1ncsc1C(=O)N(Cc1ccccc1)C1CC1	-	-8.186
C[C@@H]1CN(C2CCOC2)C[C@]12CCN(Cc1cccnc1)C2=O.O=C(O)C(F)(F)F.O=C(O)C(F)(F)F (stereo partly drawn)	-2.481	11.35
O=C(O)C(F)(F)F.[H][C@@]12CCCO[C@]1([H])[C@H](N(C)Cc1ccco1)CN(C(=O)c1ccc(C)o1)C2	-43.51	-41.45
Cl.O=C(CCc1cccc(C2CCNCC2)n1)N1CCCCC1	7.996	-1.304
COCCN1CCC(c2nc3ccc(NC(C)C)cn3n2)CC1.O=C(O)C(F)(F)F	4.494	-18.89
Cc1ncc(C(=O)N2CCCC(n3cccn3)C2)s1 (stereo not drawn)	15.26	-9.298
CC(C)Oc1cccc(Cc2nc3c([nH]2)CCCNC3=O)c1	-6.289	8.21
c1cnc(Nc2cc(CCC3CCNCC3)ccn2)cn1	4.75	-1.164
Cc1cccc(S(=O)(=O)N2CSCC2C(=O)NC(C)(C)C)c1 (stereo not drawn)	-	-25.28
CS(=O)(=O)NC(=O)c1ccn(-c2cccc(Br)c2)n1	-	11.2
CCC1CCCCN1C(=O)Cn1nc(-c2ccc(C)o2)cc(N)c1=O (stereo not drawn)	-6.265	10.39
CCNC(=O)C(C)NC(=O)Nc1ccccc1SCC (stereo not drawn)	3.833	8.544
CSc1ccccc1C(=O)C1CCCN(Cc2cc(C(C)C)[nH]n2)C1 (stereo not drawn)	-0.266	11.61
CC(C)c1cc(C(=O)N2CCNCC2C(=O)NCc2ccncc2)on1 (stereo not drawn)	-15.99	3.629
CS(=O)(=O)NCC1CCCN(C(=O)Nc2ccccc2Cl)C1 (stereo not drawn)	-1.862	21.33
COc1cccc(C(=O)N2CCCCC2CNC(N)=O)c1 (stereo not drawn)	16.34	9.713
CCN(Cc1ccco1)C(C)c1nc(C(C)(C)C)no1 (stereo not drawn)	6.759	-10.86
Cc1cc(NC(=O)N2CCN(C)CC2C)n(C)n1 (stereo not drawn)	12.8	-10.66
Cc1ccc(-c2cc(CNC(=O)N3CCC(O)CC3)on2)cc1	-	-8.083
O=C(Cc1cnn(-c2ccccc2)n1)NC1CCOCC1	-50.43	-1.245

The first 8 entries again:

SMILES	Mtb growth Cornell	Mtb heat-shock
[H][C@@]12CCN(C[C@@H]1c1cc(-c3cccs3)nn1C)[C@@H](CN)C2	-13.35	-33.29
O=C(O)C(F)(F)F.O=C(O)C(F)(F)F.O=C(O)C(F)(F)F.c1cncc(CN2CCCn3nnc(CN4CCCC4)c3C2)c1	10.47	-36.4
CCCS(=O)(=O)N(C)C(=O)CCc1ccsc1	-8.501	-28.37
CNC(=O)Cn1nnc(-c2cc3ccccc3o2)n1	-6.51	-16.1
[H][C@@]12CCN(Cc3c(C)noc3C)C[C@@]1([H])[C@H](C(=O)N1CCCO1)CCO2	28.25	-4.942
O=S(=O)(Cc1ccc(F)c(Cl)c1)NCCOc1cccnc1	27.69	8.775
CN(C)CCNC(=O)c1cc(-c2cnc(N3CCCC3)nc2)cn1C.O=C(O)C(F)(F)F	-	-14.58
O=C(O)C(F)(F)F.O=C(O)C(F)(F)F.[H][C@@]12CN(CCOC)C[C@]1([H])[C@@H](OC)CCN2Cc1cccs1	5.528	-45.94